Publication PMC9515472, “The AhR ligand phthiocol and vitamin K analogs as Pseudomonas aeruginosa quorum sensing inhibitors” (Frontiers in Microbiology, 2022)

Test system: P. aeruginosa PAO1 proteome
Format: cell-based, Pseudomonas aeruginosa
Conditions: 750 nM

CC1=C(O)C(=O)c2ccccc2C1=O [Pht, 2-hydroxy-3-methyl-1,4-naphthoquinone]
number of proteins upregulated (p-value cutoff 0.05): 10
number of proteins significantly affected (p-value cutoff 0.05, of 2,203 proteins identified): 37
